Reference: the supplement of paper PMC10470496
Where a name gives a salt, the structure may show the parent alone. This is one part of the list. Single values are uncertain, as repeats are few or missing.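 Three clinical Candida auris isolates (clades III, IV and I) from the CDC resistance isolate bank were grown in RPMI-1640 at 35°C. Growth was background-corrected OD600 relative to same-plate vehicle-only wells. Hits required over 50% inhibition in at least two strains and a plate-corrected B-score above 0.1.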

Tests used:
Assay in all cases: growth relative to vehicle control (OD600 ratio) (fraction); higher = less inhibition
Details in all cases: 24 h
C. auris AR-384 = tested on: C. auris AR-384
C. auris AR-386 = tested on: C. auris AR-386
C. auris AR-387 = tested on: C. auris AR-387

| SMILES | growth (C. auris AR-384; 1 µM) | growth (C. auris AR-384; 10 µM) | growth (C. auris AR-386; 1 µM) | growth (C. auris AR-386; 10 µM) | growth (C. auris AR-387; 1 µM) | growth (C. auris AR-387; 10 µM) |
| --- | --- | --- | --- | --- | --- | --- |
| CN1CCN(C2=Nc3ccccc3Oc3ccc(Cl)cc32)CC1 [Loxapine Succinate] | 0.98 | 0.89 | 0.83 | 0.89 | 1.02 | 0.79 |
| O=C1[C@H](CC[C@H](O)c2ccc(F)cc2)[C@@H](c2ccc(O)cc2)N1c1ccc(F)cc1 [Ezetimibe] | 0.95 | 1.06 | 1.07 | 0.8 | 0.91 | 0.92 |
| COc1cc(C)c(/C=C/C(C)=C/C=C/C(C)=C/C(=O)O)c(C)c1C [Acitretin] | 1.07 | 1.38 | 1.19 | 0.67 | 0.99 | 1.01 |
| O=C(/C=C/c1cccc(S(=O)(=O)Nc2ccccc2)c1)NO [Belinostat (PXD101)] | 0.83 | 1.23 | 0.98 | 0.87 | 0.8 | 1.2 |
| Cc1ncc(C[n+]2csc(CCO)c2C)c(N)n1 [Thiamine HCl (Vitamin B1)] | 0.68 | 0.99 | 0.56 | 0.77 | 1.07 | 1.12 |
| Cc1nc(Nc2ncc(C(=O)Nc3c(C)cccc3Cl)s2)cc(N2CCN(CCO)CC2)n1 [Dasatinib] | 0.77 | 0.48 | 0.67 | 0.76 | 0.8 | 0.75 |
| NC(=O)[C@@H]1CC[C@@H]2CN1C(=O)N2OS(=O)(=O)O [Avibactam sodium] | 1.05 | 0.74 | 1.02 | 0.68 | 0.6 | 0.65 |
| CCCCC1C(=O)N(c2ccccc2)N(c2ccccc2)C1=O [Phenylbutazone] | 0.78 | 0.88 | 1.21 | 0.94 | 0.98 | 1.01 |
| COc1ccc(-n2nc(C(N)=O)c3c2C(=O)N(c2ccc(N4CCCCC4=O)cc2)CC3)cc1 [Apixaban] | 1.05 | 1.29 | 1.32 | 0.87 | 0.97 | 0.85 |
| Cc1cccn2c(=O)c(-c3nnn[nH]3)cnc12 [Pemirolast potassium] | 0.69 | 0.71 | 0.85 | 0.55 | 1 | 1.14 |
| Nc1nc(=O)c2c([nH]1)NC[C@H](CNc1ccc(C(=O)N[C@@H](CCC(=O)O)C(=O)O)cc1)N2C=O [Calcium Levofolinate] | 0.83 | 0.67 | 0.68 | 0.69 | 0.92 | 0.96 |
| Nc1nc(=O)[nH]cc1F [Flucytosine] | 0.67 | 0.12 | 0.46 | 0.13 | 0.1 | 0.1 |
| CCCSc1nc(N[C@@H]2C[C@H]2c2ccc(F)c(F)c2)c2nnn([C@@H]3C[C@H](OCCO)[C@@H](O)[C@H]3O)c2n1 [Ticagrelor] | 1.1 | 1.22 | 1.12 | 1.1 | 1.13 | 1.35 |
| O=C1OC(CN2CCOCC2)CN1/N=C/c1ccc([N+](=O)[O-])o1 (configuration not stated) [Furaltadone HCl] | 0.9 | 0.99 | 1.01 | 1.35 | 1.05 | 1.32 |
| O[C@@H](COc1cccc2ncccc12)CN1CCN(C2c3ccccc3[C@@H]3[C@H](c4ccccc42)C3(F)F)CC1 (some centres not stated) | 0.81 | 0.93 | 0.82 | 0.86 | 0.82 | 1.07 |
| O=C(/C=C/C=C/c1ccc2c(c1)OCO2)N1CCCCC1 [Piperine] | 1 | 0.79 | 0.93 | 0.66 | 0.71 | 0.86 |
| CN(C)C(=O)C(CCN1CCC(O)(c2ccc(Cl)cc2)CC1)(c1ccccc1)c1ccccc1 [Loperamide HCl] | 1.35 | 1.3 | 1.18 | 0.92 | 0.92 | 1.02 |
| CNCCC(Oc1ccc(C(F)(F)F)cc1)c1ccccc1 (configuration not stated) [Fluoxetine HCl] | 1 | 1.05 | 0.85 | 0.46 | 0.7 | 0.74 |
| CC[C@@H]1C(=O)OC[C@@H]1Cc1cncn1C [Pilocarpine HCl] | 1.03 | 0.86 | 1.33 | 0.88 | 0.89 | 0.63 |
| CCOC(=O)[C@H](CCc1ccccc1)N[C@@H](C)C(=O)N1[C@H](C(=O)O)C[C@@H]2CCC[C@@H]21 [Ramipril] | 0.87 | 0.8 | 0.93 | 0.9 | 0.87 | 0.73 |
| Cc1ccc(C(=O)Nc2ccc(CN3CCN(C)CC3)c(C(F)(F)F)c2)cc1C#Cc1cnc2cccnn12 | 0.71 | 0.65 | 1.14 | 1.14 | 0.97 | 0.68 |
| CN(C/C=C/C#CC(C)(C)C)Cc1cccc2ccccc12 [Terbinafine HCl] | 0.56 | 0.65 | 0.39 | 0.36 | 0.4 | 0.32 |
| NC(=O)c1nc(F)cnc1O [Favipiravir (T-705)] | 1.19 | 1.14 | 0.94 | 1.16 | 0.84 | 0.83 |
| CC[C@H]1OC(=O)[C@H](C)[C@@H](O[C@H]2C[C@@](C)(OC)[C@@H](O)[C@H](C)O2)[C@H](C)[C@@H](O[C@@H]2O[C@H](C)C[C@H](N(C)C)[C@H]2O)[C@](C)(OC)C[C@@H](C)C(=O)[C@H](C)[C@@H](O)[C@]1(C)O [Clarithromycin] | 0.87 | 1 | 0.97 | 0.95 | 0.97 | 0.98 |

| SMILES | growth (C. auris AR-384; 1 µM) | growth (C. auris AR-384; 10 µM) | growth (C. auris AR-386; 1 µM) | growth (C. auris AR-386; 10 µM) | growth (C. auris AR-387; 1 µM) | growth (C. auris AR-387; 10 µM) |
| --- | --- | --- | --- | --- | --- | --- |
| O=C1CN(/N=C/c2ccc([N+](=O)[O-])o2)C(=O)N1 [Nitrofurantoin] | 0.63 | 0.63 | 0.53 | 0.48 | 0.65 | 0.65 |
| CCCCCN(C)CCC(O)(P(=O)(O)O)P(=O)(O)O [Ibandronate sodium] | 0.98 | 1.01 | 0.93 | 0.71 | 0.91 | 1.03 |
| CN1CCC(=C2c3ccccc3CCc3sccc32)CC1 [Pizotifen Malate] | 0.77 | 1.11 | 1.03 | 0.84 | 1.13 | 1.2 |
| COc1ccc2[nH]cc(CCNC(C)=O)c2c1 [Melatonin] | 1.06 | 1.43 | 1.28 | 0.79 | 0.94 | 0.94 |
| O=c1n(CCCN2CCN(c3cccc(Cl)c3)CC2)nc2ccccn12 [Trazodone HCl] | 0.93 | 1.13 | 1.17 | 1.41 | 1.54 | 1.32 |
| CC(=O)OC(C)C[N+](C)(C)C (configuration not stated) [Methacholine chloride] | 1.03 | 0.87 | 1.03 | 0.76 | 0.99 | 0.75 |
| NCCCC(=O)O [4-Aminobutyric acid] | 0.86 | 0.71 | 1.02 | 0.66 | 1.08 | 0.69 |
| CN(C)c1ccc(C(=C2C=CC(=[N+](C)C)C=C2)c2ccc(N(C)C)cc2)cc1 [Crystal Violet] | 1.25 | 2.44 | 0.81 | 1.33 | 1.25 | 1.03 |
| CN1C2CCCC1CC(NC(=O)c1nn(C)c3ccccc13)C2 (configuration not stated) [Granisetron HCl] | 0.57 | 0.74 | 0.82 | 0.81 | 0.97 | 0.83 |
| CN(C)CCc1c[nH]c2ccc(C[C@H]3COC(=O)N3)cc12 [Zolmitriptan] | 0.95 | 0.8 | 1 | 0.98 | 0.86 | 0.73 |
| COc1ccc(C[C@H](N)C(=O)N[C@H]2[C@@H](O)[C@H](n3cnc4c(N(C)C)ncnc43)O[C@@H]2CO)cc1 [Puromycin 2HCl] | 0.74 | 0.83 | 0.82 | 0.83 | 0.9 | 0.86 |
| Oc1cccc(O)c1 [Resorcinol] | 1.01 | 0.84 | 0.68 | 0.91 | 0.76 | 0.87 |
| C[n+]1ccccc1/C=N/O [Pralidoxime chloride] | 0.68 | 0.69 | 1.1 | 0.73 | 0.78 | 0.84 |
| C[C@]1(O)C[C@@H](c2nc(-c3ccc4ccc(-c5ccccc5)nc4c3)c3c(N)nccn32)C1 [Linsitinib (OSI-906)] | 0.92 | 0.75 | 0.77 | 1.15 | 1.01 | 1.03 |
| COc1cc2c(cc1OC)C(=O)C(CC1CCN(Cc3ccccc3)CC1)C2 (configuration not stated) [Donepezil HCl] | 1.35 | 1.28 | 0.9 | 0.99 | 0.94 | 0.95 |
| C[C@@H]1NC(=O)[C@@H](N)CNC(=O)[C@H](C2CCNC(=N)N2)NC(=O)/C(=C/NC(N)=O)NC(=O)[C@H](CNC(=O)CC(N)CCCN)NC1=O.N=C1NCC[C@H]([C@@H]2NC(=O)/C(=C/NC(N)=O)NC(=O)[C@H](CNC(=O)C[C@@H](N)CCCN)NC(=O)[C@H](CO)NC(=O)[C@@H](N)CNC2=O)N1 [Capreomycin Sulfate] | 1.01 | 1.37 | 0.94 | 1.26 | 0.76 | 1.11 |
| O=C(/C=C\n1cnc(-c2cc(C(F)(F)F)cc(C(F)(F)F)c2)n1)NNc1cnccn1 [Selinexor (KPT-330)] | 0.93 | 1.08 | 0.94 | 0.81 | 1.13 | 0.9 |
| CC(C)(C)c1cc(NC(=O)Nc2ccc(-c3cn4c(n3)sc3cc(OCCN5CCOCC5)ccc34)cc2)no1 [Quizartinib (AC220)] | 0.99 | 0.73 | 0.84 | 0.54 | 0.75 | 0.78 |
| COC(=O)[C@H](Cc1ccccc1)NC(=O)[C@@H](N)CC(=O)O [Aspartame] | 0.76 | 0.93 | 0.7 | 0.65 | 0.92 | 0.63 |
| CCCCOc1ccc(OCCCN2CCOCC2)cc1 [Pramoxine HCl] | 1.1 | 0.85 | 1.34 | 0.64 | 0.88 | 0.78 |
| CC(=O)OCC(=O)[C@@]1(O)CC[C@H]2[C@@H]3CCC4=CC(=O)CC[C@]4(C)[C@H]3C(=O)C[C@@]21C [Cortisone acetate] | 0.82 | 0.94 | 0.9 | 0.63 | 0.73 | 0.74 |
| CCN(CCCOc1ccc2c(Nc3cc(CC(=O)Nc4cccc(F)c4)[nH]n3)ncnc2c1)CCOP(=O)(O)O [Barasertib (AZD1152-HQPA)] | 1.05 | 1.04 | 1.37 | 0.65 | 0.89 | 0.93 |
| COc1cc2nc(N3CCN(C(=O)c4ccco4)CC3)nc(N)c2cc1OC [Prazosin HCl] | 0.89 | 0.64 | 0.7 | 1.04 | 0.77 | 0.77 |

Quoted at random: 2 compounds from above

| SMILES | growth (C. auris AR-384; 1 µM) | growth (C. auris AR-384; 10 µM) | growth (C. auris AR-386; 1 µM) | growth (C. auris AR-386; 10 µM) | growth (C. auris AR-387; 1 µM) | growth (C. auris AR-387; 10 µM) |
| --- | --- | --- | --- | --- | --- | --- |
| NCCCC(=O)O [4-Aminobutyric acid] | 0.86 | 0.71 | 1.02 | 0.66 | 1.08 | 0.69 |
| COc1cc2c(cc1OC)C(=O)C(CC1CCN(Cc3ccccc3)CC1)C2 (configuration not stated) [Donepezil HCl] | 1.35 | 1.28 | 0.9 | 0.99 | 0.94 | 0.95 |
